PubChem BioAssay AID1259268 – Sanger Institute | 2017

Assay: 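Kinase knock-downs that boost killing of colorectal cancer cells by targeted drugs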 (follow-up of hits)
Cell system: human SNUC1 colorectal cancer cells
Reagent: single siRNA against human genes
Conditions: anchor drugs added a day after transfection: BYL719 1 µM, cetuximab 5 µg/ml or trametinib 10 nM, versus DMSO vehicle
Read-out: 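Mean viability per well relative to non-targeting pool 2 siRNA, plus a synergy score weighing the joint knock-down and drug effect against each effect alone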
Reading the numbers: synergy score with trametinib and synergy score with cetuximab and synergy score with BYL719: higher = stronger synergy of knock-down with drug
Active means: 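Active if the synergy score is above 0.10 for at least one of the three drugs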
Meaning of the calls: active = synergy with at least one drug; inactive = no synergy with any drug
Here is a random part of 160 reagents. In the full data, 58 (36%) are marked active. 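Trametinib by itself roughly halved viability, making its arm harsher than the cetuximab and BYL719 arms.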 The numbers tell different reagents against one gene apart. Not all columns of the deposit are shown. Not stated in the record: the amount of reagent, the time to read-out.

gene,reagent,synergy score with trametinib,synergy score with cetuximab,synergy score with BYL719,activity call
NLK,1,-0.061,-0.00174,-0.228,inactive
NLK,2,0.314,0.183,-0.23,active
NLK,3,0.129,0.255,-0.174,active
NLK,4,-0.0434,0.0978,-0.23,inactive
MARK3,1,-0.0462,-0.0868,-0.18,inactive
MARK3,2,-0.0641,-0.0663,-0.23,inactive
MARK3,3,0.0236,-0.154,-0.33,inactive
MARK3,4,0.0276,-0.107,-0.359,inactive
CDKN2D,1,0.339,-0.0663,-0.108,active
CDKN2D,2,0.135,-0.00579,-0.0382,active
CDKN2D,3,0.193,-0.0663,-0.0938,active
CDKN2D,4,0.173,-0.0967,0.0403,active
CRIM1,1,-0.0497,-0.191,-0.333,inactive
CRIM1,2,0.175,0.0628,-0.06,active
CRIM1,3,0.265,-0.0352,-0.143,active
CRIM1,4,0.273,-0.0506,-0.2,active
ACVR1,1,-0.0471,-0.329,-0.42,inactive
ACVR1,2,-0.00155,-0.194,-0.154,inactive
ACVR1,3,0.142,-0.0663,-0.196,active
ACVR1,4,0.297,-0.0839,-0.285,active
NR2F2,1,0.036,-0.149,-0.189,inactive
NR2F2,2,-0.09,-0.16,-0.101,inactive
NR2F2,3,0.0148,-0.132,-0.299,inactive
NR2F2,4,0.1,-0.174,-0.324,inactive
MAPK4,1,0.0561,0.0425,-0.0463,inactive
MAPK4,2,0.00816,-0.0692,0.0311,inactive
MAPK4,3,0.025,-0.0802,-0.141,inactive
MAPK4,4,0.0573,-0.0253,-0.0177,inactive
STK36,1,0.126,-0.0663,-0.0537,active
STK36,2,0.06,-0.125,-0.361,inactive
STK36,3,-0.112,-0.108,-0.313,inactive
STK36,4,-0.0229,-0.262,-0.391,inactive
CDK6,1,0.0131,-0.00306,-0.34,inactive
CDK6,2,0.0967,-0.208,-0.195,inactive
CDK6,3,0.0456,-0.116,-0.132,inactive
CDK6,4,0.0207,-0.26,-0.2,inactive
BRAF,1,0.0334,-0.152,-0.0921,inactive
BRAF,2,0.0748,-0.0663,-0.109,inactive
BRAF,3,-0.128,-0.06,-0.132,inactive
BRAF,4,0.017,-0.0663,-0.23,inactive
EPHA6,1,0.153,-0.0527,-0.172,active
EPHA6,2,-0.0406,-0.0035,-0.0807,inactive
EPHA6,3,0.0605,0.0722,0.0146,inactive
EPHA6,4,0.0489,-0.0663,-0.00871,inactive
SYK,1,0.128,0.146,-0.048,active
SYK,2,0.297,0.0987,-0.089,active
SYK,3,0.293,-0.0021,-0.0499,active
SYK,4,-0.0299,-0.0663,-0.148,inactive
PFKFB3,1,0.119,0.00166,-0.142,active
PFKFB3,2,0.0546,0.0377,-0.0581,inactive
PFKFB3,3,0.0183,0.115,-0.23,active
PFKFB3,4,0.0199,0.0137,-0.252,inactive
